The test concerns L1210 leukemia ip in BDF1 mice, survival T/C. The test can be described thus: NCI In Vivo Anticancer Drug Screen. Data for tumor model L1210 Leukemia (intraperitoneal) in B6D2F1 (BDF1) mice. Particulars: T/C endpoint: mean survival time, higher T/C = longer survival.
Setting [1] is: dose: 200.0 mg/kg/injection, schedule: Q01DX001 (ip), vehicle: saline.
Where [2] appears, read: dose: 400.0 mg/kg/injection, schedule: Q01DX001 (ip), vehicle: saline.
Setting [3] is: dose: 75.0 mg/kg/injection, schedule: Q01DX001 (ip), vehicle: carboxymethylcellulose (CMC).

The list shows only some results of the screen, not a fair sample: it gathers tests that were run many times, whatever their T/C, doses with no T/C, and many T/C values between a quarter and a half above the control. Other doses and runs of a compound stand elsewhere. T/C: endpoint of the treated group in % of that of the vehicle group. Some doses have a count of surviving animals in place of a T/C: the source holds a T/C of zero for them, seemingly a mark for toxic or unscored doses. Some survivor counts are full or nearly so, which does not show that the dose was tolerated: survival well below the control is almost never listed, so the zero probably covers shortened survival too. Counts of survivors are from the toxicity check (mostly the fifth day) where no day follows; animals may have died later. Schedule codes are those of the source, taken here to give the interval after Q, in days (D) or hours (H), and the number of doses after X. Some schedules carry Z or #; the key to these is not given. For survival time, the PubChem record calls one and a half times the control and up active, and a quarter to a half above the control has no call in these data; cut-offs in other NCI protocols can differ. Some T/C values carry the count of animals alive at the toxicity check (mostly the fifth day); without a count, all were alive then. Some doses were run more than once; their values stand side by side, smallest first.

As to `CCOC(=O)CC(C)=O.CCOC(=O)CC(C)=O.CCOC(=O)CC(C)=O.[Al]`, the survivor count was 3 of 3 (dose: 50.0 mg/kg/injection, schedule: Q01DX009 (ip), vehicle: Klucel (hydroxypropylcellulose) (HPC)); 3 of 3 (dose: 100.0 mg/kg/injection, schedule: Q01DX005 (ip), vehicle: Klucel (hydroxypropylcellulose) (HPC)); 3 of 3 (dose: 200.0 mg/kg/injection, schedule: Q01DX005 (ip), vehicle: Klucel (hydroxypropylcellulose) (HPC)); 1 of 3 (dose: 400.0 mg/kg/injection, schedule: Q01DX005 (ip), vehicle: Klucel (hydroxypropylcellulose) (HPC)).

Turning to `O=[N+]([O-])c1ccccc1N=Nc1c(O)[nH]c2c(Cl)cc(Cl)cc12`, the survivor count by setting is: under setting [1], 3 of 6; under setting [2], 1 of 6.

With `CCC1=NNC(=O)C1(Br)Br`, the survivor count runs as follows: (dose: 100.0 mg/kg/injection, schedule: Q01DX001 (ip), vehicle: saline) 0 of 4; under setting [1], 0 of 4; under setting [2], 0 of 4.

Consider `Oc1ccc(O)c(-c2ccccc2)c1`, for which the survivor count (dose: 400.0 mg/kg/injection, schedule: Q01DX001 (ip), vehicle: carboxymethylcellulose (CMC)) is recorded as 2 of 6.

For the compound `O=C(c1ccccc1)c1c(-c2ccccc2)c(-c2ccccc2)n(-c2ccccc2)c1C(=O)c1ccccc1`, under setting [3], the survivor count was 4 of 4.

`CCC(C)(CO)N=Cc1ccccc1O.CCC(C)(O)/N=C/c1ccccc1O.[Cu].[Cu]` (stereo not drawn): the survivor count is 3 of 6 (dose: 75.0 mg/kg/injection, schedule: Q01DX001 (ip), vehicle: other); 0 of 6 (dose: 150.0 mg/kg/injection, schedule: Q01DX001 (ip), vehicle: other); 0 of 6 (dose: 300.0 mg/kg/injection, schedule: Q01DX001 (ip), vehicle: other).

For `CC(=O)OCC(OC(C)=O)C(OC(C)=O)C(OC(C)=O)C(/C=N/NC(N)=S)=N/NC(N)=S` (stereo not drawn), for the setting “dose: 400.0 mg/kg/injection, schedule: Q01DX009 (ip), vehicle: other”, the survivor count is 2 of 6.

In the case of `CO/N=C(/c1ccccc1)c1cccc[n+]1C`, the survivor count (dose: 75.0 mg/kg/injection, schedule: Q04DX003 (ip), vehicle: saline) is 2 of 6.

As to `CCOc1cc(C#N)c(OCC)cc1N`, under setting [2], the survivor count was 2 of 4.

`CCCCCCCCCCCCCC[N+](C)(C)CC#CC[N+](C)(C)CCCCCCCCCCCCCC`: the survivor count was 0 of 3 (dose: 100.0 mg/kg/injection, schedule: Q04DX002 (ip), vehicle: saline with Tween-80); 0 of 3 (dose: 200.0 mg/kg/injection, schedule: Q04DX002 (ip), vehicle: saline with Tween-80); 0 of 3 (dose: 400.0 mg/kg/injection, schedule: Q04DX002 (ip), vehicle: saline with Tween-80).

Turning to `C[N+](C)(C)c1ncnc2nc[nH]c12`, the T/C was 127 % of control (dose: 11.25 mg/kg/injection, schedule: Q01DX Z (ip), vehicle: saline); 95, 104, 106, 109 % of control (dose: 15.0 mg/kg/injection, schedule: Q01DX009 (ip), vehicle: saline); 90, 92, 113, 117 % of control (dose: 30.0 mg/kg/injection, schedule: Q01DX009 (ip), vehicle: saline); 102, 113 [5 of 6 alive], 118, 122 % of control (dose: 60.0 mg/kg/injection, schedule: Q01DX009 (ip), vehicle: saline); 129 % of control (dose: 62.0 mg/kg/injection, schedule: Q01DX009 (ip), vehicle: saline); 137 % of control (dose: 80.0 mg/kg/injection, schedule: Q01DX015 (ip), vehicle: saline). Also, the T/C is, setting by setting: (dose: 90.0 mg/kg/injection, schedule: Q01DX Z (ip), vehicle: saline) 149 % of control; (dose: 120.0 mg/kg/injection, schedule: Q01DX009 (ip), vehicle: saline) 100, 108, 109 [5 of 6 alive], 132 % of control; (dose: 120.0 mg/kg/injection, schedule: Q01DX015 (ip), vehicle: saline) 141 % of control; (dose: 125.0 mg/kg/injection, schedule: Q01DX009 (ip), vehicle: saline) 132 % of control; (dose: 125.0 mg/kg/injection, schedule: Q01DX009 (oral), vehicle: saline) 135 % of control; (dose: 180.0 mg/kg/injection, schedule: Q01DX015 (ip), vehicle: saline) 148 % of control. The T/C (dose: 180.0 mg/kg/injection, schedule: Q01DX Z (ip), vehicle: carboxymethylcellulose (CMC)) was 128 % of control [6 of 7 alive]; the T/C (dose: 180.0 mg/kg/injection, schedule: Q01DX Z (ip), vehicle: saline) was 137 % of control; the T/C (dose: 200.0 mg/kg/injection, schedule: Q## X024 (ip), vehicle: saline) was 125 % of control; the T/C (dose: 250.0 mg/kg/injection, schedule: Q01DX005 (ip), vehicle: saline) is 132 % of control [7 of 10 alive]; the T/C (dose: 250.0 mg/kg/injection, schedule: Q01DX009 (oral), vehicle: saline) is 134 % of control; the T/C (dose: 400.0 mg/kg/injection, schedule: Q## X024 (ip), vehicle: saline) is 143 % of control [9 of 10 alive]. The T/C reads like this: (dose: 500.0 mg/kg/injection, schedule: Q01DX009 (oral), vehicle: saline) 143 % of control; (dose: 800.0 mg/kg/injection, schedule: Q## X008 (ip), vehicle: saline) 146 % of control. Also, the survivor count runs as follows: (dose: 250.0 mg/kg/injection, schedule: Q01DX009 (ip), vehicle: saline) 5 of 10; (dose: 270.0 mg/kg/injection, schedule: Q01DX Z (ip), vehicle: carboxymethylcellulose (CMC)) 2 of 6; (dose: 405.0 mg/kg/injection, schedule: Q01DX015 (ip), vehicle: saline) 10 of 10; (dose: 405.0 mg/kg/injection, schedule: Q01DX Z (ip), vehicle: carboxymethylcellulose (CMC)) 0 of 6; (dose: 500.0 mg/kg/injection, schedule: Q01DX001 (ip), vehicle: saline) 0 of 10; (dose: 500.0 mg/kg/injection, schedule: Q01DX001 (sc), vehicle: saline) 5 of 10. In addition, the survivor count (dose: 500.0 mg/kg/injection, schedule: Q01DX009 (sc), vehicle: saline) was 0 of 10; the survivor count (dose: 500.0 mg/kg/injection, schedule: Q## X003 (ip), vehicle: saline) is 0 of 9; the survivor count (dose: 605.0 mg/kg/injection, schedule: Q01DX Z (ip), vehicle: carboxymethylcellulose (CMC)) is on record as 0 of 6; the survivor count (dose: 1000.0 mg/kg/injection, schedule: Q01DX001 (ip), vehicle: saline) is 0 of 10; the survivor count (dose: 1000.0 mg/kg/injection, schedule: Q01DX001 (sc), vehicle: saline) was 0 of 10; the survivor count (dose: 1000.0 mg/kg/injection, schedule: Q## X003 (ip), vehicle: saline) was 0 of 10.

With `O=C(Cc1ccccc1)C(Cl)c1ccccc1` (stereo not drawn), the survivor count under setting [2] is 1 of 6.

For `C/C(=N/NC(=O)c1ccc(N)cc1)c1ccc(C)cc1`, the survivor count (dose: 400.0 mg/kg/injection, schedule: Q04DX002 (ip), vehicle: Klucel (hydroxypropylcellulose) (HPC)) is given as 0 of 3.

On to `O=C(O)c1ccccc1/C=N/N1C(=O)CSC1=S`, for which the survivor count was 0 of 6 (dose: 15.0 mg/kg/injection, schedule: Q01DX001 (ip), vehicle: carboxymethylcellulose (CMC)); 0 of 6 (dose: 30.0 mg/kg/injection, schedule: Q01DX001 (ip), vehicle: carboxymethylcellulose (CMC)); 0 of 6 (dose: 60.0 mg/kg/injection, schedule: Q01DX001 (ip), vehicle: carboxymethylcellulose (CMC)); 0 of 6 under setting [3]; 0 of 6 (dose: 150.0 mg/kg/injection, schedule: Q01DX001 (ip), vehicle: carboxymethylcellulose (CMC)); 0 of 6 (dose: 300.0 mg/kg/injection, schedule: Q01DX001 (ip), vehicle: carboxymethylcellulose (CMC)).

Take `CC[C@@H](c1ccc(O)cc1)[C@@H](CC)c1ccc(O)cc1`: the survivor count was 0 of 6 (dose: 250.0 mg/kg/injection, schedule: Q01DX Z (ip), vehicle: carboxymethylcellulose (CMC)); 0 of 6 (dose: 500.0 mg/kg/injection, schedule: Q01DX Z (ip), vehicle: carboxymethylcellulose (CMC)); 0 of 6 (dose: 1000.0 mg/kg/injection, schedule: Q01DX Z (ip), vehicle: carboxymethylcellulose (CMC)).

Source of the values: PubChem BioAssay AID248 (DTP/NCI, 2004).
